The results in this text go back to paper PMC6770187.

Chains of the proteins cited; added tags and fusions are not shown.
UniProt Q04690: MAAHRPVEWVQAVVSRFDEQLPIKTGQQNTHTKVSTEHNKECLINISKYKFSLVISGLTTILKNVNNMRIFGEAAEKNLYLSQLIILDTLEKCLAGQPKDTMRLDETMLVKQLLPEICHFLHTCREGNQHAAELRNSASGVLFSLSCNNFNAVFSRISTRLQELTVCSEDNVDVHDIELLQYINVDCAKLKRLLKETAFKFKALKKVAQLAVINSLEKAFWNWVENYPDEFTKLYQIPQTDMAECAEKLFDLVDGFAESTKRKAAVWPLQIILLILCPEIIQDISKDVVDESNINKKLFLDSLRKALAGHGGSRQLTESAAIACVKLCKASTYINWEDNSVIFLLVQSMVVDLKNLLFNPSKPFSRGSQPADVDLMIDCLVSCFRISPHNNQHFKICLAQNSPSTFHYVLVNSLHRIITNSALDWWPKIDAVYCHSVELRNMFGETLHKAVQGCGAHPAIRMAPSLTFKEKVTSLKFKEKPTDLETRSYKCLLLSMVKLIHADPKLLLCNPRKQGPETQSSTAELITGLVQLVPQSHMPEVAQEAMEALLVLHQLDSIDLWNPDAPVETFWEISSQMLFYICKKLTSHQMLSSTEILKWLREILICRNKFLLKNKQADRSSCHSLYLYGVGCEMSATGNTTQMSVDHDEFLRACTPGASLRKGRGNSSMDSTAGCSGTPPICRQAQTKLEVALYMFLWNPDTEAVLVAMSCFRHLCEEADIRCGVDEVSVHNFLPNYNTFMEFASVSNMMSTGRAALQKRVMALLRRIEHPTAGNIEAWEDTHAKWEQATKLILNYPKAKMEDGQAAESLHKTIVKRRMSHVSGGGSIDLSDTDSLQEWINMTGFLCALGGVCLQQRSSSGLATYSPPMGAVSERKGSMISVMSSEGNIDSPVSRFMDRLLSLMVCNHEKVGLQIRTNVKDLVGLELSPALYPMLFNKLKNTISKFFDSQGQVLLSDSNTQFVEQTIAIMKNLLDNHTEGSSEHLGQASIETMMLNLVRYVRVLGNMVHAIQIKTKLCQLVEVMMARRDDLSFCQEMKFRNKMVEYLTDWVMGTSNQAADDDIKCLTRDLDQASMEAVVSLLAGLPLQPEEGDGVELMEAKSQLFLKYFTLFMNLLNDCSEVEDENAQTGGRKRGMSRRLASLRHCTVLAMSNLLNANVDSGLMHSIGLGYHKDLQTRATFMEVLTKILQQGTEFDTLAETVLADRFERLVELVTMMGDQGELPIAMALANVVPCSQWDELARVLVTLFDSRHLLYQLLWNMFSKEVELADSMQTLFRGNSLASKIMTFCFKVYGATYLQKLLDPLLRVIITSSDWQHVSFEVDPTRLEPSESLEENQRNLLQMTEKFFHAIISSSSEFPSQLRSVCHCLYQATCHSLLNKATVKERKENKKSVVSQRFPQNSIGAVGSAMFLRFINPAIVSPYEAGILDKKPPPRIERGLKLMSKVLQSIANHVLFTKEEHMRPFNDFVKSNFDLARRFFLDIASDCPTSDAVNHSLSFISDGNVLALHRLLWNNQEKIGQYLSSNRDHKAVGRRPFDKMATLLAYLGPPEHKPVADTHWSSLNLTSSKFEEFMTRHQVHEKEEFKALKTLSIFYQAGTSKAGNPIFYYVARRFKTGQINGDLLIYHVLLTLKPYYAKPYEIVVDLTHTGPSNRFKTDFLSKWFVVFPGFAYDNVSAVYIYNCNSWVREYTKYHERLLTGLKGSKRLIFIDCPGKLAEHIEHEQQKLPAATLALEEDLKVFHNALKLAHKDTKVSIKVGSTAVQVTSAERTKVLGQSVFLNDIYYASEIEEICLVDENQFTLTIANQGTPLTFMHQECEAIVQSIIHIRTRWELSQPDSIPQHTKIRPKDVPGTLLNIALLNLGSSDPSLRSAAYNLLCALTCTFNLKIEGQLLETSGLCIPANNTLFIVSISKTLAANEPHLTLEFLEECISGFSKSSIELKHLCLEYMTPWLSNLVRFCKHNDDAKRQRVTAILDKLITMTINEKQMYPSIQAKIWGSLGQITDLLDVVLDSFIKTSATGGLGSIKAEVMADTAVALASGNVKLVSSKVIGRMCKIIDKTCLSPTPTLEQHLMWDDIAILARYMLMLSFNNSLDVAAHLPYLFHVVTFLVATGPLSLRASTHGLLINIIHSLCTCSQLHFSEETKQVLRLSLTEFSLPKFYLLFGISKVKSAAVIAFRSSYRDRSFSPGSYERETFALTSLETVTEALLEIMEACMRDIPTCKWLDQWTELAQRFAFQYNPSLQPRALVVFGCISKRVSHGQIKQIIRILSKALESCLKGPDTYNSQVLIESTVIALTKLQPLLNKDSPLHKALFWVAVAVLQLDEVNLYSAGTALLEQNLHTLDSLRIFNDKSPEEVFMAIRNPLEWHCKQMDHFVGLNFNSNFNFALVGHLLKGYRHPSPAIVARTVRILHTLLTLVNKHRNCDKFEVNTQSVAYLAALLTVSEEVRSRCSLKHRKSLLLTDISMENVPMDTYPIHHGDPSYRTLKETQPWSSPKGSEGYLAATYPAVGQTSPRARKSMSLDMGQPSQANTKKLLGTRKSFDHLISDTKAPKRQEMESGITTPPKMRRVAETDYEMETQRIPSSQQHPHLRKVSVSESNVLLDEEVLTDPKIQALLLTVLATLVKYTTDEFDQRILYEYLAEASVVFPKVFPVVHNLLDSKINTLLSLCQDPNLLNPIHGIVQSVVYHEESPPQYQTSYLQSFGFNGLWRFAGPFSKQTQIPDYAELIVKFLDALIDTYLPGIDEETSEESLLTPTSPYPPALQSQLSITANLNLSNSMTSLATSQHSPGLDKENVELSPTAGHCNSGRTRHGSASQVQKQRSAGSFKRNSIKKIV
UniProt Q9UBQ5: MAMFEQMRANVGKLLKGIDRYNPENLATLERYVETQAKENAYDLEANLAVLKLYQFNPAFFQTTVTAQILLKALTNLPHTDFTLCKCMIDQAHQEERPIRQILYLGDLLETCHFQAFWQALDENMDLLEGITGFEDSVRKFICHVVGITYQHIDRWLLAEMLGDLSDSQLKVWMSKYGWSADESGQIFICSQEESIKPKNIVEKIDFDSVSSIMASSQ
UniProt Q9Y6M1: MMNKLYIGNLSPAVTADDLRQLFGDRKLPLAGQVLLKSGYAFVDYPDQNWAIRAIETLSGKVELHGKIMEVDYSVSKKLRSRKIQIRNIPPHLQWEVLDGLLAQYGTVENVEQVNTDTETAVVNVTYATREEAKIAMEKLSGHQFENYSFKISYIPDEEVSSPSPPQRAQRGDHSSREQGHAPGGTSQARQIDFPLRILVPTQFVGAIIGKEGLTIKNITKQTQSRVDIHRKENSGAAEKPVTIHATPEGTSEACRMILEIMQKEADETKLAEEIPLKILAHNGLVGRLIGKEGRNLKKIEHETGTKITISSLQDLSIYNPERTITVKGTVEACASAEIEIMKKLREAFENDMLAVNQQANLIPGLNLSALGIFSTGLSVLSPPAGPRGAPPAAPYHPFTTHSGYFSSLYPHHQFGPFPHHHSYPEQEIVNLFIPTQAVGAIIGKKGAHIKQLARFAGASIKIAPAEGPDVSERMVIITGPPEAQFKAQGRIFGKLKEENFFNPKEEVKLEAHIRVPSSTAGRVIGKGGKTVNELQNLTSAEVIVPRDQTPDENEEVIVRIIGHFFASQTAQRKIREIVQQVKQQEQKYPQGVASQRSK
UniProt P62308: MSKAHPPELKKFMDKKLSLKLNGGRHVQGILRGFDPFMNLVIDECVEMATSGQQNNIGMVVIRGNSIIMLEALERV
UniProt P21359: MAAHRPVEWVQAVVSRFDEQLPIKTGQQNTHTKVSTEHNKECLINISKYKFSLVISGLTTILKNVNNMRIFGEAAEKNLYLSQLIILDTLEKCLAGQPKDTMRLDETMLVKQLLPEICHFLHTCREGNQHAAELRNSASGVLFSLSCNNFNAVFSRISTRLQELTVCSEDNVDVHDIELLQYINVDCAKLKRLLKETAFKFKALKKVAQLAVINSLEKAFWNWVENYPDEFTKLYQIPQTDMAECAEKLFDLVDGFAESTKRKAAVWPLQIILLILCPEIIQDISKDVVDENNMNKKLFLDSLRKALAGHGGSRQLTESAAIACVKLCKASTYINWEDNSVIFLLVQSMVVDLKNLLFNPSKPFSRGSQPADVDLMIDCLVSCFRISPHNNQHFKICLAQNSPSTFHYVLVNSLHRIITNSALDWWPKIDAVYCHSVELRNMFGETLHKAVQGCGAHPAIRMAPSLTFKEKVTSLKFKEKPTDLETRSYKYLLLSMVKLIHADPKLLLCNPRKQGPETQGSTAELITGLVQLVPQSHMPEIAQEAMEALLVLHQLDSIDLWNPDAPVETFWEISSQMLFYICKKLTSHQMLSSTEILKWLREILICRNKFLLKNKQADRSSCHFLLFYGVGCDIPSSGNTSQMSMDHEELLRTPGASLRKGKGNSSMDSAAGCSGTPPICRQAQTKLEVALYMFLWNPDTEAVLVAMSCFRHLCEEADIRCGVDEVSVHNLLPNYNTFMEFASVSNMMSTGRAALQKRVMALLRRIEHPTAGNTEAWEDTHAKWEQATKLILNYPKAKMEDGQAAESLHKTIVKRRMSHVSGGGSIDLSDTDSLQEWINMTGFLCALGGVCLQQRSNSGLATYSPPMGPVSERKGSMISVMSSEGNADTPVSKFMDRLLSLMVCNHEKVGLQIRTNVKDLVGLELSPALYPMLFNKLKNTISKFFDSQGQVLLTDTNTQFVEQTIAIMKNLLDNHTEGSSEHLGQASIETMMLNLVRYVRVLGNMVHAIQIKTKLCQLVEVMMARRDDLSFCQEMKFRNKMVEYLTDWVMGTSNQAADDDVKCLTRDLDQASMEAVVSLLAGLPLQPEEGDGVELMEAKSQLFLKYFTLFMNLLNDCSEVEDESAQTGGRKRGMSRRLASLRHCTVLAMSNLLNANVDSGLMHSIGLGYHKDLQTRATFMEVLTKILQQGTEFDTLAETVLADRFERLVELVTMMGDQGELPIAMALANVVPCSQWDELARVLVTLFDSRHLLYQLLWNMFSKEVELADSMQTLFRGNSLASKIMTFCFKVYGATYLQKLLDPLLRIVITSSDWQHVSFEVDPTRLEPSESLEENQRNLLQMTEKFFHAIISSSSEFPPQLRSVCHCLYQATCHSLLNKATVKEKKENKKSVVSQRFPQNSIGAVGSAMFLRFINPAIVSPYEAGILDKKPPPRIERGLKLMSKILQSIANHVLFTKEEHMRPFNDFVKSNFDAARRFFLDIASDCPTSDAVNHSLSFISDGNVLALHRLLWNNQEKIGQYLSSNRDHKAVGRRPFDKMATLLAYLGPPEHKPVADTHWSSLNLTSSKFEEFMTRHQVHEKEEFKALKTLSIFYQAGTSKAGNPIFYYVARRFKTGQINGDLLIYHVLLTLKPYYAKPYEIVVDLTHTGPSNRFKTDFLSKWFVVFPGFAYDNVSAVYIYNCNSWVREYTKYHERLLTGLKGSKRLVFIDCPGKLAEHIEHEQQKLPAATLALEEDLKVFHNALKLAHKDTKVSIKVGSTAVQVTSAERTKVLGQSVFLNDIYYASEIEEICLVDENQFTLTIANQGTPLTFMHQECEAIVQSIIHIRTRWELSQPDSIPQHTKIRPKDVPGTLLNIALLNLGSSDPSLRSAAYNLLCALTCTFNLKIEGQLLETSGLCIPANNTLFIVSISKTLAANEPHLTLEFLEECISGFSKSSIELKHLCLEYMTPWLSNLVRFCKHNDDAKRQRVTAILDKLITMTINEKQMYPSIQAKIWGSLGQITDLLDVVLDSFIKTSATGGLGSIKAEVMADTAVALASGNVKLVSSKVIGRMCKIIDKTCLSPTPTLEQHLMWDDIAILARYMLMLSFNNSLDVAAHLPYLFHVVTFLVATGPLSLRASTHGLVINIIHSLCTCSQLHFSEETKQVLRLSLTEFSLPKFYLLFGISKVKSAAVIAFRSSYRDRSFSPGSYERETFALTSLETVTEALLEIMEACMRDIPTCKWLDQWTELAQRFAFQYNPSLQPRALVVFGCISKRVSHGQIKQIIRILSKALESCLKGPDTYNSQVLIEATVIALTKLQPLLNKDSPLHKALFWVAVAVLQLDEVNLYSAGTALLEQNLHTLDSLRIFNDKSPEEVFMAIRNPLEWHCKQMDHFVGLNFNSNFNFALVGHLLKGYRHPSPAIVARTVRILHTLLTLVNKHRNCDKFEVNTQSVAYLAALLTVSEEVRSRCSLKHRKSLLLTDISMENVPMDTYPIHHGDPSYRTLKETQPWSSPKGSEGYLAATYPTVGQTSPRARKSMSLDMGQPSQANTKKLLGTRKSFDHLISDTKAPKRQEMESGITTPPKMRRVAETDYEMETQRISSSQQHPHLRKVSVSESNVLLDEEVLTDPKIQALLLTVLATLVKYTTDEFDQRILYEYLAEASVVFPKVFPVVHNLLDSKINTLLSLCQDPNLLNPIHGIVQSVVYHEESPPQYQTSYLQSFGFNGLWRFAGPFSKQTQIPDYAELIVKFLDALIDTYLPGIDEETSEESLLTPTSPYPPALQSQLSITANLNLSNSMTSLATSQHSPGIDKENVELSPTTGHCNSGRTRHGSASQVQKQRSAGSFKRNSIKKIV

These are yes or no findings as the source states them, for the method shown. In cells and extracts the contact can be indirect. These calls come from enrichment with a bait or labelling near it, and not all partners need be listed. For some of these results: Where a sequence is shown, tags or fusion partners need not be part of it.

Sequences and labels used below:
B1: UDP-glucose 6-dehydrogenase (protein, UniProt O60701 1-494)
chain: MFEIKKICCIGAGYVGGPTCSVIAHMCPEIRVTVVDVNESRINAWNSPTLPIYEPGLKEVVESCRGKNLFFSTNIDDAIKEADLVFISVNTPTKTYGMGKGRAADLKYIEACARRIVQNSNGYKIVTEKSTVPVRAAESIRRIFDANTKPNLNLQVLSNPEFLAEGTAIKDLKNPDRVLIGGDETPEGQRAVQALCAVYEHWVPREKILTTNTWSSELSKLAANAFLAQRISSINSISALCEATGADVEEVATAIGMDQRIGNKFLKASVGFGGSCFQKDVLNLVYLCEALNLPEVARYWQQVIDMNDYQRRRFASRIIDSLFNTVTDKKIAILGFAFKKDTGDTRESSSIYISKYLMDEGAHLHIYDPKVPREQIVVDLSHPGVSEDDQVSRLVTISKDPYEACDGAHAVVICTEWDMFKELDYERIHKKMLKPAFIFDGRRVLDGLHNELQTIGFQIETIGKKVSSKRIPYAPSGEIPKFSLQDPPNKKPKV
B2: Interferon-induced protein with tetratricopeptide repeats 3 (protein, UniProt O14879 1-490)
chain: MSEVTKNSLEKILPQLKCHFTWNLFKEDSVSRDLEDRVCNQIEFLNTEFKATMYNLLAYIKHLDGNNEAALECLRQAEELIQQEHADQAEIRSLVTWGNYAWVYYHLGRLSDAQIYVDKVKQTCKKFSNPYSIEYSELDCEEGWTQLKCGRNERAKVCFEKALEEKPNNPEFSSGLAIAMYHLDNHPEKQFSTDVLKQAIELSPDNQYVKVLLGLKLQKMNKEAEGEQFVEEALEKSPCQTDVLRSAAKFYRRKGDLDKAIELFQRVLESTPNNGYLYHQIGCCYKAKVRQMQNTGESEASGNKEMIEALKQYAMDYSNKALEKGLNPLNAYSDLAEFLETECYQTPFNKEVPDAEKQQSHQRYCNLQKYNGKSEDTAVQHGLEGLSISKKSTDKEEIKDQPQNVSENLLPQNAPNYWYLQGLIHKQNGDLLQAAKCYEKELGRLLRDAPSGIGSIFLSASELEDGSEEMGQGAVSSSPRELLSNSEQLN
B3: Keratin 13 (protein, UniProt P13646 1-458)
chain: MSLRLQSSSASYGGGFGGGSCQLGGGRGVSTCSTRFVSGGSAGGYGGGVSCGFGGGAGSGFGGGYGGGLGGGYGGGLGGGFGGGFAGGFVDFGACDGGLLTGNEKITMQNLNDRLASYLEKVRALEEANADLEVKIRDWHLKQSPASPERDYSPYYKTIEELRDKILTATIENNRVILEIDNARLAADDFRLKYENELALRQSVEADINGLRRVLDELTLSKTDLEMQIESLNEELAYMKKNHEEEMKEFSNQVVGQVNVEMDATPGIDLTRVLAEMREQYEAMAERNRRDAEEWFHTKSAELNKEVSTNTAMIQTSKTEITELRRTLQGLEIELQSQLSMKAGLENTVAETECRYALQLQQIQGLISSIEAQLSELRSEMECQNQEYKMLLDIKTRLEQEIATYRSLLEGQDAKMIGFPSSAGSVSPRSTSVTTTSSASVTTTSNASGRRTSDVRRP
B4: Protein disulfide-isomerase A4 (protein, UniProt P13667 21-645)
chain: VAGAEGPDEDSSNRENAIEDEEEEEEEDDDEEEDDLEVKEENGVLVLNDANFDNFVADKDTVLLEFYAPWCGHCKQFAPEYEKIANILKDKDPPIPVAKIDATSASVLASRFDVSGYPTIKILKKGQAVDYEGSRTQEEIVAKVREVSQPDWTPPPEVTLVLTKENFDEVVNDADIILVEFYAPWCGHCKKLAPEYEKAAKELSKRSPPIPLAKVDATAETDLAKRFDVSGYPTLKIFRKGRPYDYNGPREKYGIVDYMIEQSGPPSKEILTLKQVQEFLKDGDDVIIIGVFKGESDPAYQQYQDAANNLREDYKFHHTFSTEIAKFLKVSQGQLVVMQPEKFQSKYEPRSHMMDVQGSTQDSAIKDFVLKYALPLVGHRKVSNDAKRYTRRPLVVVYYSVDFSFDYRAATQFWRSKVLEVAKDFPEYTFAIADEEDYAGEVKDLGLSESGEDVNAAILDESGKKFAMEPEEFDSDTLREFVTAFKKGKLKPVIKSQPVPKNNKGPVKVVVGKTFDSIVMDPKKDVLIEFYAPWCGHCKQLEPVYNSLAKKYKGQKGLVIAKMDATANDVPSDRYKVEGFPTIYFAPSGDKKNPVKFEGGDRDLEHLSKFIEEHATKLSRTKEEL
B5: Dermcidin (protein, UniProt P81605 20-110)
chain: YDPEAASAPGSGNPCHEASAAQKENAGEDPGLARQAPKPRKQRSSLLEKGLDGAKKAVGGLGKLGKDAVEDLESVGKGAVHDVKDVLDSVL
B6: Proteasome inhibitor PI31 subunit (protein, UniProt Q92530 1-271)
chain: MAGLEVLFASAAPAITCRQDALVCFLHWEVVTHGYFGLGVGDQPGPNDKKSELLPAGWNNNKDLYVLRYEYKDGSRKLLVKAITVESSMILNVLEYGSQQVADLTLNLDDYIDAEHLGDFHRTYKNSEELRSRIVSGIITPIHEQWEKANVSSPHREFPPATAREVDPLRIPPHHPHTSRQPPWCDPLGPFVVGGEDLDPFGPRRGGMIVDPLRSGFPRALIDPSSGLPNRLPPGAVPPGARFDPFGPIGTSPPGPNPDHLPPPGYDDMYL
B7: Regulator of G-protein signaling 10 (protein, UniProt O43665 1-181)
chain: MFNRAVSRLSRKRPPSDIHDSDGSSSSSHQSLKSTAKWAASLENLLEDPEGVKRFREFLKKEFSEENVLFWLACEDFKKMQDKTQMQEKAKEIYMTFLSSKASSQVNVEGQSRLNEKILEEPHPLMFQKLQDQIFNLMKYDSYSRFLKSDLFLKHKRTEEEEEDLPDAQTAAKRASRIYNT

The first assay has as its target tagged murine neurofibromin (full-length mNf1 cDNA with C-terminal TEV site / StrepII / 6X His tandem affinity tag) (mouse) (UniProt Q04690). As to the kind of experiment: affinity purification with mass spectrometry; tagged mNf1 transfected into NF1 null HEK293 cells; Strep-Tactin XT beads; 4 replicates against tagged empty vector; hits filtered by SAM, t-test and fold change, or found with WT only.
In the case of “Eukaryotic translation initiation factor 3 subunit K (from UniProt Q9UBQ5 1-218)”, the binding result is “binds”.

In the case of “Insulin-like growth factor 2 mRNA-binding protein 2 (from UniProt Q9Y6M1 1-599)”, the binding entry is listed as “binds”.

Consider “Keratin, type I cuticular Ha1 (from UniProt Q15323 1-416)”, for which the binding result was “binds”.

As for “Keratin, type I cuticular Ha6 (from UniProt O76013 1-467)”, the binding entry is recorded as “binds”.

Consider “Keratin, type I cytoskeletal 17 (from UniProt Q04695 1-432)”, for which the binding result was “binds”.

In the case of “Keratin, type II cytoskeletal 4 (from UniProt P19013 1-520)”, the binding entry is “binds”.

For the molecule “Large proline-rich protein BAG6 (from UniProt P46379 1-1132)”, the binding result is reported as “binds”.

For the molecule “Low-density lipoprotein receptor-related protein 2 (from UniProt P98164 26-4655)”, the binding entry is on record as “binds”.

In the case of “Small nuclear ribonucleoprotein G (from UniProt P62308 1-76)”, the binding entry is on record as “binds”.

For the molecule “Splicing factor 3B subunit 1 (from UniProt O75533 1-1304)”, the binding result was “binds”.

On to “βETA-arrestin-2 (from UniProt P32121 1-409)”, for which the binding entry was “binds”.

On to B1, for which the binding entry is “binds”.

Take B2: the binding entry is given as “binds”.

Turning to B3, the binding result was “binds”.

For B4, the binding result was “binds”.

B5: the binding result is “binds”.

With B6, the binding result was “binds”.

For the molecule B7, the binding result was “binds”.

The next assay shares this target. As to the kind of experiment: affinity purification with mass spectrometry; tagged mNf1 transfected into WT (NF1-replete) HEK293 cells; cleared lysate on MagStrep type3 XT (Strep-Tactin XT) beads, on ice 30 min, washed three times with Buffer W; bound proteins identified by MS.
As to “endogenous human neurofibromin (from UniProt P21359 1-2839)”, the binding result is on record as “binds”.
